The text below walks through data of US20090098570A1 (Daiichi Sankyo, published 2009).

No constants are given. Whether binding was seen depends on the method and setting. Some entries that bind do so weakly or less than the wild type. Where a sequence is shown, tags or fusion partners need not be part of it.

The experiment concerns the target T1, His-LXRα/FLAG-RXRα heterodimer (ligand binding domains of human LXRα and human RXRα) (human) (UniProt Q13133).
T1 sequence 1: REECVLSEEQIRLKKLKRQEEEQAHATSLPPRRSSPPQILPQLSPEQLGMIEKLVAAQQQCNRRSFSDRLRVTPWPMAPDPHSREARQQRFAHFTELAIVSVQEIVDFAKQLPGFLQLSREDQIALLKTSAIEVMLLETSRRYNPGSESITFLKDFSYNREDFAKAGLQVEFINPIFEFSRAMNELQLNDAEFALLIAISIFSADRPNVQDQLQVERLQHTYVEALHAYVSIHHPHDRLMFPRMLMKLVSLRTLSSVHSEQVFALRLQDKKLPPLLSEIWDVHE
T1 sequence 2: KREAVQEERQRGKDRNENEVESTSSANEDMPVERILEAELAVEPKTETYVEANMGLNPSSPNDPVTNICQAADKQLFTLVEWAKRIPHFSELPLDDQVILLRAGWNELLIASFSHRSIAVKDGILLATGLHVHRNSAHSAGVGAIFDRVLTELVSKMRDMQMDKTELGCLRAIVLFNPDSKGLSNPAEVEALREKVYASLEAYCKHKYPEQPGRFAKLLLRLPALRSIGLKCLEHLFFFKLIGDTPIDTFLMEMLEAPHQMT
The experiment in a line: FRET, Example 4.

As to KNPTSCSRRFYQLTKLLDSVQPIAR (amino acid of the N-terminal biotinylated (same method as Example 2)) [PNRC peptide … (aa 848-872)], the binding entry was “binds”.
As for HSKASWAEFSILRELLAQDVLCD (amino acid of the N-terminal biotinylated (same method as Example 2)) [PERC NRB2 peptide … (aa 332-354)], the binding entry was “binds”.
Regarding GHGEDFSKVSQNPILTSLLQITGNG (amino acid of the N-terminal biotinylated (same method as Example 2)) [TRAP220 peptide … (aa 590-614)], the binding result is “binds”.
